The target in the assay is NEDL1, Myc-tagged (UniProt Q76N89). In words: co-IP.

By UniProt entry, the sequences of proteins in these tests, tags left out.
UniProt Q76N89: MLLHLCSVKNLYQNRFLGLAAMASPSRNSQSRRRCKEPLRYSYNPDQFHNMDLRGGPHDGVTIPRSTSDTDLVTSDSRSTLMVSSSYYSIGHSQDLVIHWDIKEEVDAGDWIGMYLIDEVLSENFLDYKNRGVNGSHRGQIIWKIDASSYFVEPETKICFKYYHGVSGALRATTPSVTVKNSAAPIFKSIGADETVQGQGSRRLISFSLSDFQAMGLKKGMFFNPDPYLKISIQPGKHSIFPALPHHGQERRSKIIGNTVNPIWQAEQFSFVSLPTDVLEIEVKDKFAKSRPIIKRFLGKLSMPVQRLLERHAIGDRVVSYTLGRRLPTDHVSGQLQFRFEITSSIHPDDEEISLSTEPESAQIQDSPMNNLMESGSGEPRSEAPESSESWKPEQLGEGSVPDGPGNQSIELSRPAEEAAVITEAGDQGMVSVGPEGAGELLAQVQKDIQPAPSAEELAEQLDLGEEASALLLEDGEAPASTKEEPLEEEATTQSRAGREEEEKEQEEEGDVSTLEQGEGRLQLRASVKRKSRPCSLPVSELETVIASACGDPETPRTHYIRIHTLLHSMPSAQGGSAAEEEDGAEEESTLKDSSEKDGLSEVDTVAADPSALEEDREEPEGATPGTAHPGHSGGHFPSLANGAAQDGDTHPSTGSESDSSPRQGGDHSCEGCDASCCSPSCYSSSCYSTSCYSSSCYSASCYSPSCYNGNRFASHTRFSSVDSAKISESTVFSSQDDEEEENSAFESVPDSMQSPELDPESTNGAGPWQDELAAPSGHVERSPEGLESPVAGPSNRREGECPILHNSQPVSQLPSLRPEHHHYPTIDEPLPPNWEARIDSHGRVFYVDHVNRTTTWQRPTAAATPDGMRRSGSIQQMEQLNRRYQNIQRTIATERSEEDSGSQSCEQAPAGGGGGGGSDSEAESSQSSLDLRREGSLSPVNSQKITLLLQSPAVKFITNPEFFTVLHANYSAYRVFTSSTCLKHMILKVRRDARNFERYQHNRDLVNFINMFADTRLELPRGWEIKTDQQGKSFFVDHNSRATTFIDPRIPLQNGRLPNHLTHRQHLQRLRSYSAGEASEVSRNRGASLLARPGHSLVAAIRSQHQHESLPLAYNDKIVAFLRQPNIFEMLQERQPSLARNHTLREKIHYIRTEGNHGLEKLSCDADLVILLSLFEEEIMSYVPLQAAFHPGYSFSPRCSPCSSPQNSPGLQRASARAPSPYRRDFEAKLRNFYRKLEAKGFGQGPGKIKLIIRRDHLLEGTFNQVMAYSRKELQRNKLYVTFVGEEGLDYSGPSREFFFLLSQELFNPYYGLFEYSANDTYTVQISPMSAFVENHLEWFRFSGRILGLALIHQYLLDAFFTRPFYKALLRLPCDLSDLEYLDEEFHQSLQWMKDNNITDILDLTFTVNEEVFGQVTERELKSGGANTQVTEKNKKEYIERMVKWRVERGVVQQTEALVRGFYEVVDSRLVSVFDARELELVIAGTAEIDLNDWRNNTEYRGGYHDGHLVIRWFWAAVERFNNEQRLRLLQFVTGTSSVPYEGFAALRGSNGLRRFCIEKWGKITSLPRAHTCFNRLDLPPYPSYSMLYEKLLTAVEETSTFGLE

No constants are given. Whether binding was seen depends on the method and setting. In cells and extracts the contact can be indirect. Some entries that bind do so weakly or less than the wild type. Sequences can lack the tags named with a protein.

We go through two molecules from publication PMC6410177.

B1: angiomotin-like 1 (AMOTL1), Flag-tagged, full length (protein, UniProt Q8IY63 1-956)
chain: MWRAKLRRGTCEPAVKGSPSACYSPSSPVQVLEDSTYFSPDFQLYSGRHETSALTVEATSSIREKVVEDPLCNFHSPNFLRISEVEMRGSEDAAAGTVLQRLIQEQLRYGTPTENMNLLAIQHQATGSAGPAHPTNNFSSTENLTQEDPQMVYQSARQEPQGQEHQVDNTVMEKQVRSTQPQQNNEELPTYEEAKAQSQFFRGQQQQQQQQGAVGHGYYMAGGTSQKSRTEGRPTVNRANSGQAHKDEALKELKQGHVRSLSERIMQLSLERNGAKQHLPGSGNGKGFKVGGGPSPAQPAGKVLDPRGPPPEYPFKTKQMMSPVSKTQEHGLFYGDQHPGMLHEMVKPYPAPQPVRTDVAVLRYQPPPEYGVTSRPCQLPFPSTMQQHSPMSSQTSSASGPLHSVSLPLPLPMALGAPQPPPAASPSQQLGPDAFAIVERAQQMVEILTEENRVLHQELQGYYDNADKLHKFEKELQRISEAYESLVKSTTKRESLDKAMRNKLEGEIRRLHDFNRDLRDRLETANRQLSSREYEGHEDKAAEGHYASQNKEFLKEKEKLEMELAAVRTASEDHRRHIEILDQALSNAQARVIKLEEELREKQAYVEKVEKLQQALTQLQSACEKREQMERRLRTWLERELDALRTQQKHGNGQPANMPEYNAPALLELVREKEERILALEADMTKWEQKYLEESTIRHFAMNAAATAAAERDTTIINHSRNGSYGESSLEAHIWQEEEEVVQANRRCQDMEYTIKNLHAKIIEKDAMIKVLQQRSRKDAGKTDSSSLRPARSVPSIAAATGTHSRQTSLTSSQLAEEKKEEKTWKGSIGLLLGKEHHEHASAPLLPPPPTSALSSIASTTAASSAHAKTGSKDSSTQTDKSAELFWPSMASLPSRGRLSTTPAHSPVLKHPAAKGTAEKLENSPGHGKSPDHRGRVSSLLHKPEFPDGEMMEVLI
On to B1, for which the binding entry is recorded as “binds”.

B2: AMOTL1 ∆L/PPXY (triple mutant: LPTY188 to AATY, PPEY310 and PPEY367 to AAEY) (protein, UniProt Q8IY63 1-956)
chain: MWRAKLRRGTCEPAVKGSPSACYSPSSPVQVLEDSTYFSPDFQLYSGRHETSALTVEATSSIREKVVEDPLCNFHSPNFLRISEVEMRGSEDAAAGTVLQRLIQEQLRYGTPTENMNLLAIQHQATGSAGPAHPTNNFSSTENLTQEDPQMVYQSARQEPQGQEHQVDNTVMEKQVRSTQPQQNNEEAATYEEAKAQSQFFRGQQQQQQQQGAVGHGYYMAGGTSQKSRTEGRPTVNRANSGQAHKDEALKELKQGHVRSLSERIMQLSLERNGAKQHLPGSGNGKGFKVGGGPSPAQPAGKVLDPRGPAAEYPFKTKQMMSPVSKTQEHGLFYGDQHPGMLHEMVKPYPAPQPVRTDVAVLRYQPAAEYGVTSRPCQLPFPSTMQQHSPMSSQTSSASGPLHSVSLPLPLPMALGAPQPPPAASPSQQLGPDAFAIVERAQQMVEILTEENRVLHQELQGYYDNADKLHKFEKELQRISEAYESLVKSTTKRESLDKAMRNKLEGEIRRLHDFNRDLRDRLETANRQLSSREYEGHEDKAAEGHYASQNKEFLKEKEKLEMELAAVRTASEDHRRHIEILDQALSNAQARVIKLEEELREKQAYVEKVEKLQQALTQLQSACEKREQMERRLRTWLERELDALRTQQKHGNGQPANMPEYNAPALLELVREKEERILALEADMTKWEQKYLEESTIRHFAMNAAATAAAERDTTIINHSRNGSYGESSLEAHIWQEEEEVVQANRRCQDMEYTIKNLHAKIIEKDAMIKVLQQRSRKDAGKTDSSSLRPARSVPSIAAATGTHSRQTSLTSSQLAEEKKEEKTWKGSIGLLLGKEHHEHASAPLLPPPPTSALSSIASTTAASSAHAKTGSKDSSTQTDKSAELFWPSMASLPSRGRLSTTPAHSPVLKHPAAKGTAEKLENSPGHGKSPDHRGRVSSLLHKPEFPDGEMMEVLI
Take B2: the binding result is reported as “no binding”.
